Test results: patent publication US7267990B2, “Chelation of charged and uncharged molecules with porphyrin-based compounds” (priority 2002, dated 2007)
Some results were stated once for a whole list of compounds, not compound by compound.

The substances below were run on V79 hamster fibroblast cells (assay: Clonogenic cytotoxicity assay in V79 cells).
Assay type: cell-based
Protocol: Human glioblastoma U373 MG, hamster V79 fibroblast, and mouse melanoma B16 cells were obtained from the American Type Culture Collection. Rat gliosarcoma cells were kindly provided by the University of California at San Francisco Brain Tumor Research Group. All cells were maintained in log phase monolayer cultures with RPMI 1640 supplemented with 10% fetal bovine serum and 2 mM glutamine. We have also determined the cytotoxicity of porphyrins 4, 16, 18, and 31 in V79 hamster fibroblast cells using a clonogenic assay. For each of these porphyrins, we found CS50>300 μM, and we observed no toxicity (i.e., no effect on colony survival) at concentrations up to 200 μM.

Substance | CS50 (cytotoxicity, colony survival)
Zn(II)-meso-tetra[4-(nido-carboranyl)phenyl]porphyrin tetrapotassium salt [Compound 18] | > 300 µM
meso-tetra[4-(1-methyl-nido-carboranyl)methylphenyl]porphyrin tetrapotassium salt [Compound 4] | > 300 µM
meso-tetra[4-(nido-carboranyl)phenyl]porphyrin tetrapotassium salt [Compound 16] | > 300 µM
